Source: PubChem BioAssay (EPA / NIEHS)
Values joined by “and” are separate entries in the source; they are usually repeats but may differ in a detail not shown here. Identical values can stand only once. Inconclusive results, whose numbers are uncertain, are shown with a selection of clear calls. For some assays here: Potencies of inconclusive entries are doubtful fits and often do not repeat. Some compounds were tested as several samples or in several runs, with calls that do not always agree. Active and inactive are the calls of the source. Rule for the calls: active = hit-call score of the fitted dose curve at least 0.9, where 1 is the maximum; inconclusive = response in the unintended direction; inactive = score below 0.9.

By UniProt entry, the sequences of proteins in these tests, tags left out. Where a name states a change or a piece, a line headed by the entry shows the natural chain unless it says otherwise.
UniProt Q05941, whole entry, looked up: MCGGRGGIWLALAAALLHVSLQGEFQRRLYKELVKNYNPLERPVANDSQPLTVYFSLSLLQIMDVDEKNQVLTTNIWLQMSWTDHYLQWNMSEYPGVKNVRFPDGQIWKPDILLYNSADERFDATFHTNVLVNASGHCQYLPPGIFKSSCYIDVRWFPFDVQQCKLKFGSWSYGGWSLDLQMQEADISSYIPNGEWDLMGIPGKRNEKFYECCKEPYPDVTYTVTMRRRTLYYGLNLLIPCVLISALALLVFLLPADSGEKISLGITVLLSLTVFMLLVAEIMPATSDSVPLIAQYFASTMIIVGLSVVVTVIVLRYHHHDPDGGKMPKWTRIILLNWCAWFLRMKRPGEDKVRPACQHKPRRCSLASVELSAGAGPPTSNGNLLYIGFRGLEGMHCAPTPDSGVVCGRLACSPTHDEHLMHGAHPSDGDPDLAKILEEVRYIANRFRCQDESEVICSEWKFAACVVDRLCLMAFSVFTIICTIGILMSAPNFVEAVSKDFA
UniProt P10827: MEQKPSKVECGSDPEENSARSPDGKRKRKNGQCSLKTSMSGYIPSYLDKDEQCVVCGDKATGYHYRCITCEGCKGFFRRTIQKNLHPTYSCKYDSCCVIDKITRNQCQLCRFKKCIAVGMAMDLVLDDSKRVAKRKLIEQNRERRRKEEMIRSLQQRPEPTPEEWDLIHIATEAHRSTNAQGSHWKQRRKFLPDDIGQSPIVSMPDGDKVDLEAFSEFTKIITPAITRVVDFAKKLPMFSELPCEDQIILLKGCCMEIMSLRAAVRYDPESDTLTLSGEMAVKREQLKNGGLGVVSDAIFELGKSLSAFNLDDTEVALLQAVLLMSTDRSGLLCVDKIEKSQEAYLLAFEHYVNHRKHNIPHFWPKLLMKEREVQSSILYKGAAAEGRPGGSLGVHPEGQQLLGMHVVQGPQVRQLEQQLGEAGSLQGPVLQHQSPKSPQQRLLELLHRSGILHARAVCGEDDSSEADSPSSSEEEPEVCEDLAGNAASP
UniProt P37231: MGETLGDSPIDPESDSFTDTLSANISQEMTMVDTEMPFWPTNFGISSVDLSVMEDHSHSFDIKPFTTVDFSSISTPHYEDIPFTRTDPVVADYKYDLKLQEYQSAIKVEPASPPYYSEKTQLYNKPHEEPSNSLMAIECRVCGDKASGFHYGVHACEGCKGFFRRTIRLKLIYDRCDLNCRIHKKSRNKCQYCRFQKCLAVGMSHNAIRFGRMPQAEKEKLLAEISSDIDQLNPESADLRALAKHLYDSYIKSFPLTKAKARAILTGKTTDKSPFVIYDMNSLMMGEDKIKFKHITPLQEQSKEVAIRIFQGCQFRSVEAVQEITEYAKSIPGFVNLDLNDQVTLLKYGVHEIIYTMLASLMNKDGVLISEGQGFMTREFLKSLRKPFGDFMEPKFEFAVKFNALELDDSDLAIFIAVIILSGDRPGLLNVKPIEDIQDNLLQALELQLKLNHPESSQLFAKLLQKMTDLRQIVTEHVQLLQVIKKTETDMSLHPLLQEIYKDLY
UniProt P19793: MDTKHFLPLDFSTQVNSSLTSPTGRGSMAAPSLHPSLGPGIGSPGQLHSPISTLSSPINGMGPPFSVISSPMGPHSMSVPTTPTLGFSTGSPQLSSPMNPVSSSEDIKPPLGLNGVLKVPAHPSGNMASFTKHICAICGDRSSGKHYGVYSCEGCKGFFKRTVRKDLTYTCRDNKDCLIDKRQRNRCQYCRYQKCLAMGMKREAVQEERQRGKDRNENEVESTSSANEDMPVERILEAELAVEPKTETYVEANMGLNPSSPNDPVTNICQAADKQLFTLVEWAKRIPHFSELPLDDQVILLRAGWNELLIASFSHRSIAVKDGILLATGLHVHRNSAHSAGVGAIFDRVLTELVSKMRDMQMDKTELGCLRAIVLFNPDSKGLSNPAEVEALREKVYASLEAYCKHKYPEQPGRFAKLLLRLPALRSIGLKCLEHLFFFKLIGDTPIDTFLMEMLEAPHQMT
UniProt P04637, whole entry, looked up: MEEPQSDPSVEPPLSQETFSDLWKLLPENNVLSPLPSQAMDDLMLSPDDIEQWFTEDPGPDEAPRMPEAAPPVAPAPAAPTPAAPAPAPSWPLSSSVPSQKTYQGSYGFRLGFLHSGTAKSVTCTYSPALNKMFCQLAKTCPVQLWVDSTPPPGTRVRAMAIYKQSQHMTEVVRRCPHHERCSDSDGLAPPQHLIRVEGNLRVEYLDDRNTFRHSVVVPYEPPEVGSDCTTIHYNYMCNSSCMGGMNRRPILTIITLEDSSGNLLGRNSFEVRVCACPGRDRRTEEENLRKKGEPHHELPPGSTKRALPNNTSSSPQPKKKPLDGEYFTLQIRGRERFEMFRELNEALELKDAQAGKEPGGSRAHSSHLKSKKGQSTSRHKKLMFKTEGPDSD

Key:
[1] = molecular target: rat Neonicotinoid receptor (NNR), Chrna7 (gene 25302) (UniProt Q05941); experiment: NVS_LGIC_rNNR_BungSens: NovaScreen (NVS) Ligand-Gated Ion Channel Assay for rat Neonicotinoid receptor (NNR) (AID 2283315)
Procedure, shortened: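 Radioligand displacement binding on rat cortical membranes, 2.5 h incubation, filtration and scintillation counting. Loss of specific binding fitted relative to DMSO.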

NCBI gene 100848466 = experiment: NVS_NR_bPR: NovaScreen (NVS) Nuclear Receptor Binding Assay for bovine Progextron Receptor (PR) (AID 2283343)
Procedure, shortened: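 Bovine uterine membrane preparation, cell-free; radioligand competitive displacement measured by scintillation counting 18 hours after dosing. Loss of signal versus DMSO baseline indicates binding; primary HTS single concentration 25 uM in duplicate, actives followed in concentration series.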

[2] = molecular target: human Thyroid Receptor Alpha (TRa), THRA (gene 7067) (UniProt P10827); experiment: NVS_NR_hTRa_Antagonist: NovaScreen (NVS) Nuclear Receptor Binding Assay for human Thyroid Receptor Alpha Antagonism (TRa) (AID 2283362);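 note: activity is loss of signal relative to DMSO baseline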
Procedure, shortened: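 Extracted protein, cell-free; 1 h incubation after dosing; AlphaLISA chemiluminescence binding readout. DMSO = baseline/neg ctrl; signal loss = activity. Primary: duplicate, 25 uM; secondary: conc. series on actives.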

[3] = molecular target: Peroxisome proliferator-activated receptor gamma (Homo sapiens) (UniProt P37231); experiment: NVS_NR_hPPARg: NovaScreen (NVS) Nuclear Receptor Binding Assay for human Peroxisome Proliferator-activated Receptor gamma (PPARg) (AID 2283370)
Procedure, shortened: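 Chemicals were tested first in duplicate at 25 uM, then in concentration series if active. Binding to cell-free PPARg protein was measured by fluorescence polarization after 2 h, with loss of signal scored against DMSO.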

[4] = molecular target: Retinoic acid receptor RXR-alpha (Homo sapiens) (UniProt P19793); experiment: OT_NURR1_NURR1RXRa_0480: Odyssey Thera (OT) 8-hour HEK293T Protein Complementation Assay for Nurr1/retinoid X receptor (RXR) (AID 2283385)
Procedure, shortened: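 HEK293T cells expressing Nurr1 and RXRα fused to reporter fragments were dosed with compound for 8 hours. Complex formation was read as fluorescence intensity and analysed as gain of signal against DMSO as baseline.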

[5] = molecular target: Retinoic acid receptor RXR-alpha (Homo sapiens) (UniProt P19793); experiment: OT_NURR1_NURR1RXRa_1440: Odyssey Thera (OT) 24-hour HEK293T Protein Complementation Assay for Nurr1/retinoid X receptor (RXR) (AID 2283386)
Procedure, shortened: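 HEK293T cells were dosed with compound and read 24 h later by fluorescence intensity in a protein-fragment complementation format, where Nurr1–RXRα interaction reconstitutes a split reporter. Activity was fitted as gain of signal relative to DMSO baseline.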

[6] = TOX21_p53_BLA_p2_viability: Viability Assessment in the Tox21 HCT-116 p53 Agonism Beta-lactamase Assay, Phase 2 (AID 2283591);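 note: compound exposure lasted 16 h at 37 °C; actives lower the ATP signal meaning cytotoxicity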
Procedure, shortened: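 HCT-116 p53-bla cells (4000/well) rested 5 h at 37C, then received compounds in DMSO (217-fold dilution) for 16 h at 37C, 5% CO2. After the CCF4 read, CellTiter-Glo was added; ATP luminescence was read after 30 min at room temperature.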

[7] = molecular target: Cellular tumor antigen p53 (Homo sapiens) (UniProt P04637); experiment: TOX21_p53_BLA_p2_ratio: Tox21 HCT-116 p53 Agonism Beta-lactamase Assay, Ratio, Phase 2 (AID 2283592)
Procedure, shortened: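 HCT116 p53-bla; 4000 cells/well; 5 h pre-incubation; cpd in DMSO, 217-fold dilution; 16 h 37C/5% CO2; CCF4-AM 2 h RT; Ex 405, Em 460/530 ratio; DMSO = baseline; positive fitting direction.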

[8] = TOX21_p53_BLA_p3_viability: Viability Assessment in the Tox21 HCT-116 p53 Agonism Beta-lactamase Assay, Phase 3 (AID 2283593);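 note: cells exposed to compound for 16 h before reading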
Procedure, shortened: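 HCT-116 cells (4000/well) rested 5 h at 37C, then got DMSO compounds by pin tool (217-fold dilution) for 16 h at 37C, 5% CO2. After the bla read, CellTiter-Glo was added and luminescence read at 30 min, room temperature.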

[9] = molecular target: Cellular tumor antigen p53 (Homo sapiens) (UniProt P04637); experiment: TOX21_p53_BLA_p3_ratio: Tox21 HCT-116 p53 Agonism Beta-lactamase Assay, Ratio, Phase 3 (AID 2283596)
Procedure, shortened: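 HCT116 p53-bla cells (4000/well) given compound in DMSO (217-fold dilution) after 5 h, incubated 16 h at 37C. CCF4-AM substrate 2 h at room temperature; 460/530 nm emission ratio, gain fitted against DMSO.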

[10] = TOX21_p53_BLA_p4_viability: Viability Assessment in the Tox21 HCT-116 p53 Agonism Beta-lactamase Assay, Phase 4 (AID 2283597);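 note: hits lower the luminescence signal meaning cytotoxicity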
Procedure, shortened: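 Cells plated, 5 h pre-incubation; DMSO compounds pinned (217-fold dilution); 16 h, 37C/5% CO2; CCF4-AM 2 h RT; CellTiter-Glo 30 min RT; luminescence read.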

[11] = molecular target: Cellular tumor antigen p53 (Homo sapiens) (UniProt P04637); experiment: TOX21_p53_BLA_p5_ratio: Tox21 HCT-116 p53 Agonism Beta-lactamase Assay, Ratio, Phase 5 (AID 2283599)
Procedure, shortened: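 HCT-116 cells carrying a p53-inducible beta-lactamase reporter were seeded at 4000 cells/well and dosed after 5 h with compound in DMSO (217-fold dilution). After 16 h at 37C, CCF4-AM substrate was added for 2 h, and the 460/530 nm emission ratio was scored as gain-of-signal versus DMSO.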

[12] = TOX21_p53_BLA_p5_viability: Viability Assessment in the Tox21 HCT-116 p53 Agonism Beta-lactamase Assay, Phase 5 (AID 2283600)
Procedure, shortened: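 4000 cells/well; 5 h pre-incubation; DMSO compounds pin-transferred, 217-fold dilution; 16 h, 37C/5% CO2; CCF4-AM 2 h RT; CellTiter-Glo 30 min RT; luminescence.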

[13] = molecular target: Cellular tumor antigen p53 (Homo sapiens) (UniProt P04637); experiment: TOX21_p53_BLA_p4_ratio: Tox21 HCT-116 p53 Agonism Beta-lactamase Assay, Ratio, Phase 4 (AID 2283601)
Procedure, shortened: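 HCT116 cells carrying an inducible beta-lactamase reporter were plated at 4000 cells/well, rested 5 h, then exposed to compounds in DMSO (217-fold dilution) for 16 h at 37C. CCF4-AM substrate was loaded 2 h at room temperature; 460/530 nm emission ratio scored gain-of-signal versus DMSO.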

With CCOP(=S)(OCC)Oc1cc(C)nc(C(C)C)n1 as the molecule, how does the AC50 [1] read?
Its AC50 is inconclusive: 25 µM.

And the outcome (NCBI gene 100848466)?
The outcome was “inactive”.

What about the AC50 [2] of the same molecule?
Its AC50 is inconclusive: 12.8 µM.

And the AC50 [3]?
Its AC50 is inconclusive: 0.24 µM.

What about the AC50 [4] of the same molecule?
Its AC50 is inconclusive: 15.1 µM and inconclusive: 50 µM.

What about the AC50 [5] of the same molecule?
The AC50 was inconclusive: 3.6 µM and inconclusive: 50 µM.

And the AC50 [6]?
The AC50 was inconclusive: 46.1 µM and inconclusive: 4.57 µM.

And the outcome [6]?
Its outcome is “inactive”.

And the AC50 [7]?
The AC50 was inconclusive: 46.3 µM and inconclusive: 23 µM.

What about the AC50 [8] of the same molecule?
Its AC50 is active: 49.5 µM and inconclusive: 46.3 µM.

And the AC50 [9]?
The AC50 was active: 67.9 µM and inconclusive: 23 µM.

And the AC50 [10]?
Its AC50 is inconclusive: 23 µM.

And the AC50 [11]?
The AC50 was active: 41.7 µM and inconclusive: 46.3 µM and inconclusive: 23 µM.

And the AC50 [12]?
Its AC50 is active: 36.1 µM.

And the outcome [12]?
The outcome was “inactive”.

What about the AC50 [13] of the same molecule?
Its AC50 is inconclusive: 23 µM.

What about the outcome [13] of the same molecule?
The outcome was “inactive”.
